Measured values published in patent publication US20220041744A1.
Results are given in words; binding and its absence hold for the method and conditions named. Some results given as binding are weak or reduced against the parent protein; the word gives no strength.

Target: T1, human recombinant soluble CD73 protein (human) (UniProt P21589)
T1 sequence: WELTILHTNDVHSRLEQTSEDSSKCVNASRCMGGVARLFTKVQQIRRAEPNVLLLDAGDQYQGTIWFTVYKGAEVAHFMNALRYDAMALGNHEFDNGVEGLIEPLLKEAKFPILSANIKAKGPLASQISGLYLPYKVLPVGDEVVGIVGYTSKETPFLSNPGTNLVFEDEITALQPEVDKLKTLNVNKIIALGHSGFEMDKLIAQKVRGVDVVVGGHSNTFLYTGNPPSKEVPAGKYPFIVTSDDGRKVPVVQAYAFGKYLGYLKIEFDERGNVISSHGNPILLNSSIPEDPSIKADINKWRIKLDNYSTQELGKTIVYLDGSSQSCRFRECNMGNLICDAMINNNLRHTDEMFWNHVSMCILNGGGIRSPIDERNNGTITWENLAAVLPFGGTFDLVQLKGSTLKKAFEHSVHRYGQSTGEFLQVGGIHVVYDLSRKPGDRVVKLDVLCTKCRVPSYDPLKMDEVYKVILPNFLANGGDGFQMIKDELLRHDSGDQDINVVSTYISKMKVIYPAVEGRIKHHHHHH
Experiment: SPR

- binding: binds
B1: H2L0 (antibody, human IgG1, V domains shown)
VH: QIQLVQSGAEVKKPGASVKVSCKASGYAFTSYNMYWVRQAPGQSLEWMGYIDPYNGGSSYNLTFKGRVTITVDKSASTAYMELSSLRSEDTAVYYCARGYGNYKAWFAYWGQGTLVTVSS
VL: DIQMTQSPSSLSASVGDRVTITCKASQSVSNDVAWYQQKPGKAPKLLIYYASTRYTGVPSRFSGSGSGTDFTFTISSLQPEDIATYYCQQDYSSLTFGQGTKLEIK
